In PMC7847308, “Nanoscopic anatomy of dynamic multi-protein complexes at membranes resolved by graphene-induced energy transfer” (eLife, 2021):
Results are given in words; binding and its absence hold for the method and conditions named. Some entries that bind do so weakly or less than the wild type. Sequences can lack the tags named with a protein.

T1: Vps41-TAP (S. cerevisiae), P38959
T1 chain: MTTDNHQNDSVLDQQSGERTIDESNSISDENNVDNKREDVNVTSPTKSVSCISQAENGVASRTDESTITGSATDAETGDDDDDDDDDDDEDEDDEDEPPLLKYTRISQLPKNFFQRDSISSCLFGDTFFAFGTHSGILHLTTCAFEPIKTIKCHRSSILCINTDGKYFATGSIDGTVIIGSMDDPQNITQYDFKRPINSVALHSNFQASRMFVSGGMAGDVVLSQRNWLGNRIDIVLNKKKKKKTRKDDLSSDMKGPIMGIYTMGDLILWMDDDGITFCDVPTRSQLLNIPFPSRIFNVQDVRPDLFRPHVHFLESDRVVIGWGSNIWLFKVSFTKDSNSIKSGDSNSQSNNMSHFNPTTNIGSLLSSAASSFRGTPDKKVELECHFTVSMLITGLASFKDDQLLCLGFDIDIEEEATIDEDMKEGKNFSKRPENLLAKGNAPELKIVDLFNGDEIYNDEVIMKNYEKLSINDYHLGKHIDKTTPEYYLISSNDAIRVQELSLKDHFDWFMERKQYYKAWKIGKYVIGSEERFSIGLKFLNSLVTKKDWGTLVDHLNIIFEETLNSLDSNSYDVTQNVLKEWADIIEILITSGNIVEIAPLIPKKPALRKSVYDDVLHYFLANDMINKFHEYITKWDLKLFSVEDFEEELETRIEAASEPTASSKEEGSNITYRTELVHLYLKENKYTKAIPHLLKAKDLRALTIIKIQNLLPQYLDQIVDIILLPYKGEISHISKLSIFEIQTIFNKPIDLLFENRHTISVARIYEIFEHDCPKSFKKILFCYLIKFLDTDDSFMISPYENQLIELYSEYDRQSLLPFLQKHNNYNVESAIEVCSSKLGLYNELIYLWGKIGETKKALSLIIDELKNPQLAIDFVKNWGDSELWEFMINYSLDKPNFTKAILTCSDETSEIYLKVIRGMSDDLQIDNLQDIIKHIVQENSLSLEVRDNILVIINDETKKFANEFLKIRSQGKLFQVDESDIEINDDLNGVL


Target: T1, Vps41-TAP (S. cerevisiae), P38959
Test: tandem affinity purification with SDS-PAGE and Coomassie staining; yeast lysate on IgG Sepharose by the TAP-tagged subunit, 2 h 4 C, washed, eluted by TEV cleavage; 300 mM NaCl (HOPS) or 150 mM NaCl (Mon1-Ccz1)
Conditions: remark: other sources report otherwise

| Binder | binding |
| --- | --- |
| Vps39, Q07468 1-1049 (protein) MLRAQKLHSLKSSDITAILPTEQSQKLVLAKKNGDVEVYSRDGNTLKLFQVYPDLLQNAKNDPLPPVIENFYFANELSTIFAQCKETLILLSTTNLHEYDRIIDRRGINHCWLFERSHKNKEEKNTYLIYSTINTAKMRVLIWEGRTYKNMMEASLSYRKETIRSIYPGETGITLATDLGIYHWPYNKPSLIRIEKTVKNKFPKDMISALTELKEQAEKVIEKKPKKNSHFDAQSFSSMDRMSRKSSMSSLWYRTIRNERGNKIRYTFELDGNDATPMIIDGATKKIFKVELMHNNEEPFLIATDHATFSESNSEFDHMQYLSSNLLMLYNSSTIKFVDYENGFTFLQQKIPEGIKWVKNLSGTYFLVWTSNDEVQLFSYHVDDGSEDDDQESICGDINDPDFYQLWRKVLFYKFFIDSPHSKELCVSDNPEESLDICAMKLRDLTVMWCLRIFDKFQNYMVQLERSRNSRMIRSKCEEMIIKSIFDLFIKFWAPPQLVILKVFPSAISSLVLEITGQEHHCLLKEAEEVKETYDIPPHLLNRWCLPYLTDTRRHLQNLLSKENDDESRITWCYRDREIKQSFDFFLISNHDDVDLNTMLTLIDTVLFKCYLYYNPPMVGPFIRVENHCDSHVIVTELKIRHMFKDLIDFYYKRGNHEEALKFLTDLVDELENDNTDQKQRQKIDHGVKILVIYYLKKLSNPQLDVIFTYTDWLLNRHNDSIKEILSSIFFYDSQACSSRDHLKVYGYIKKFDKLLAIQYLEFAISTFRLEGNKLHTVLIKLYLENLDIPSTRIKLKSLLETTSVYEPRTILKLLNDAIESGSDQLPTNQLNFVKYLKIFPLSKLENHKEAVHILLDEIDDYKAATSYCNDVYQSDSTKGEELLLYLYSKLVSIYDSNRNSKLILNFLQDHGSKLNSAEIYKNLPQDISLYDIGRVVSQLLKKHTSKMDETRLEKALLQVELVATTYKLNERMSSYGVLSDSHKCPICKKVISNFGTDSISWFTREGRNIITHYNCGKVLQERFNAKNEKSSRIKQKTLGEVINELNNK | binds |
| Vps11-yEGFP, P12868 1-1029 (protein) MSLSSWRQFQLFENIPIRDPNFGGDSLLYSDPTLCAATIVDPQTLIIAVNSNIIKVVKLNQSQVIHEFQSFPHDFQITFLKVINGEFLVALAESIGKPSLIRVYKLEKLPNREQLYHSQVELKNGNNTYPISVVSISNDLSCIVVGFINGKIILIRGDISRDRGSQQRIIYEDPSKEPITALFLNNDATACFAATTSRILLFNTTGRNRGRPSLVLNSKNGLDLNCGSFNPATNEFICCLSNFIEFFSSSGKKHQFAFDLSLRKRIFCVDKDHILIVTEETGVPTTSISVNELSPTIINRIFIIDAKNKIISLNFVVSSAIIDIFSTSQSGKNITYLLTSEGVMHRITPKSLENQINIIIQKELYPFALQLAKQHSLSPLDVQEIHKKYGDYLFKKGLRKEATDQYIQCLDVVETSEIISKFGVKEVPDPESMRNLADYLWSLIKNSISQRDHVTLLLIVLIKLKDVEGIDTFIQHFDRKGIWNEGVVMDDMDDVTFFYSDNDFFDLDLILELMKESDFKRLSYRLAKKYSKDSLIIVDILLNLLHNPVKAIKYIKSLPIDETLRCLVTYSKKLLEESPNETNALLIEVFTGKFKPSTFEVDLDRRDTTGDFSENIRTVFYSYKTFFNYMNSNGTSDAMSESSEASHEHEEPTYHPPKPSIVFSSFVTKPFEFVVFLEACLACYQQYEGFDEDRQVILTTLYDLYLNLAQNDVPERIDDWRSRATGVLRESNKLVYSAASNNTSKRVDNSIMLLISHMDQSSASAKDKTKIDIASFANDNPEMDLLSTFRAMTLNEEPSTCLKFLEKYGTEEPKLLQVALSYFVSNKLIFKEMGGNEVLKEKVLRPIIEGERMPLLDIIKALSRTNVAHFGLIQDIIIDHVKTEDTEIKRNEKLIESYDKELKEKNKKLKNTINSDQPLHVPLKNQTCFMCRLTLDIPVVFFKCGHIYHQHCLNEEEDTLESERKLFKCPKCLVDLETSNKLFEAQHEVVEKNDLLNFALNSEEGSRDRFKVITEFLGRGAISYSDITI | binds |
| Vps11, P12868 1-1029 (protein) MSLSSWRQFQLFENIPIRDPNFGGDSLLYSDPTLCAATIVDPQTLIIAVNSNIIKVVKLNQSQVIHEFQSFPHDFQITFLKVINGEFLVALAESIGKPSLIRVYKLEKLPNREQLYHSQVELKNGNNTYPISVVSISNDLSCIVVGFINGKIILIRGDISRDRGSQQRIIYEDPSKEPITALFLNNDATACFAATTSRILLFNTTGRNRGRPSLVLNSKNGLDLNCGSFNPATNEFICCLSNFIEFFSSSGKKHQFAFDLSLRKRIFCVDKDHILIVTEETGVPTTSISVNELSPTIINRIFIIDAKNKIISLNFVVSSAIIDIFSTSQSGKNITYLLTSEGVMHRITPKSLENQINIIIQKELYPFALQLAKQHSLSPLDVQEIHKKYGDYLFKKGLRKEATDQYIQCLDVVETSEIISKFGVKEVPDPESMRNLADYLWSLIKNSISQRDHVTLLLIVLIKLKDVEGIDTFIQHFDRKGIWNEGVVMDDMDDVTFFYSDNDFFDLDLILELMKESDFKRLSYRLAKKYSKDSLIIVDILLNLLHNPVKAIKYIKSLPIDETLRCLVTYSKKLLEESPNETNALLIEVFTGKFKPSTFEVDLDRRDTTGDFSENIRTVFYSYKTFFNYMNSNGTSDAMSESSEASHEHEEPTYHPPKPSIVFSSFVTKPFEFVVFLEACLACYQQYEGFDEDRQVILTTLYDLYLNLAQNDVPERIDDWRSRATGVLRESNKLVYSAASNNTSKRVDNSIMLLISHMDQSSASAKDKTKIDIASFANDNPEMDLLSTFRAMTLNEEPSTCLKFLEKYGTEEPKLLQVALSYFVSNKLIFKEMGGNEVLKEKVLRPIIEGERMPLLDIIKALSRTNVAHFGLIQDIIIDHVKTEDTEIKRNEKLIESYDKELKEKNKKLKNTINSDQPLHVPLKNQTCFMCRLTLDIPVVFFKCGHIYHQHCLNEEEDTLESERKLFKCPKCLVDLETSNKLFEAQHEVVEKNDLLNFALNSEEGSRDRFKVITEFLGRGAISYSDITI | binds |

Second part, the binder after the results:

| binding | Binder |
| --- | --- |
| binds | Vps33-yEGFP, P20795 1-691 (protein) MNRFWNTKKFSLTNADGLCATLNEISQNDEVLVVQPSVLPVLNSLLTFQDLTQSTPVRKITLLDDQLSDDLPSALGSVPQMDLIFLIDVRTSLRLPPQLLDAAQKHNLSSLHIIYCRWKPSFQNTLEDTEQWQKDGFDLNSKKTHFPNVIESQLKELSNEYTLYPWDLLPFPQIDENVLLTHSLYNMENVNMYYPNLRSLQSATESILVDDMVNSLQSLIFETNSIITNVVSIGNLSKRCSHLLKKRIDEHQTENDLFIKGTLYGERTNCGLEMDLIILERNTDPITPLLTQLTYAGILDDLYEFNSGIKIKEKDMNFNYKEDKIWNDLKFLNFGSIGPQLNKLAKELQTQYDTRHKAESVHEIKEFVDSLGSLQQRQAFLKNHTTLSSDVLKVVETEEYGSFNKILELELEILMGNTLNNDIEDIILELQYQYEVDQKKILRLICLLSLCKNSLREKDYEYLRTFMIDSWGIEKCFQLESLAELGFFTSKTGKTDLHITTSKSTRLQKEYRYISQWFNTVPIEDEHAADKITNENDDFSEATFAYSGVVPLTMRLVQMLYDRSILFHNYSSQQPFILSREPRVSQTEDLIEQLYGDSHAIEESIWVPGTITKKINASIKSNNRRSIDGSNGTFHAAEDIALVVFLGGVTMGEIAIMKHLQKILGKKGINKRFIIIADGLINGTRIMNSIS |
| binds | Vps33, P20795 1-691 (protein) MNRFWNTKKFSLTNADGLCATLNEISQNDEVLVVQPSVLPVLNSLLTFQDLTQSTPVRKITLLDDQLSDDLPSALGSVPQMDLIFLIDVRTSLRLPPQLLDAAQKHNLSSLHIIYCRWKPSFQNTLEDTEQWQKDGFDLNSKKTHFPNVIESQLKELSNEYTLYPWDLLPFPQIDENVLLTHSLYNMENVNMYYPNLRSLQSATESILVDDMVNSLQSLIFETNSIITNVVSIGNLSKRCSHLLKKRIDEHQTENDLFIKGTLYGERTNCGLEMDLIILERNTDPITPLLTQLTYAGILDDLYEFNSGIKIKEKDMNFNYKEDKIWNDLKFLNFGSIGPQLNKLAKELQTQYDTRHKAESVHEIKEFVDSLGSLQQRQAFLKNHTTLSSDVLKVVETEEYGSFNKILELELEILMGNTLNNDIEDIILELQYQYEVDQKKILRLICLLSLCKNSLREKDYEYLRTFMIDSWGIEKCFQLESLAELGFFTSKTGKTDLHITTSKSTRLQKEYRYISQWFNTVPIEDEHAADKITNENDDFSEATFAYSGVVPLTMRLVQMLYDRSILFHNYSSQQPFILSREPRVSQTEDLIEQLYGDSHAIEESIWVPGTITKKINASIKSNNRRSIDGSNGTFHAAEDIALVVFLGGVTMGEIAIMKHLQKILGKKGINKRFIIIADGLINGTRIMNSIS |
